Measurements reported in PubChem BioAssay AID504793 (Drosophila RNAi Screening Center, 2011).
Assay: 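Knock-downs allowing continued mitosis even though DNA is damaged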 (primary screen). Cell system: Drosophila S2R+ cells. Reagent: long dsRNA against Drosophila genes, about 0.25 µg dsRNA per well. Time to read-out: 4 days of dsRNA, then 4 hours of drug before read-out. Conditions: doxorubicin 0.5 µM for 4 hours to cause double-strand breaks, in cells also given a low, harmless dose of dsRNA against nbs to sensitise the assay. Read-out: 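Per-well count of mitotic cells stained for phospho-histone H3 after doxorubicin exposure, used as mitotic index; counts are raw and not normalised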. Reading the numbers: mitotic cells: higher = more cells in mitosis, weaker G2 arrest. Call rule: 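a call needs confirmation in secondary tests, with other dsRNAs and a check of mitotic timing without damage, not just a high primary count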. Calls: active = confirmed in follow-up tests; inactive = not confirmed.
In all, the deposit lists about 23,000 reagents; below is an unselected part of those that have a named target and a result. Of all reagents, 62 (0.27%) got an active call. 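Calls come from follow-up tests whose scores are not deposited, so confirmed genes may have low counts here; counts are not normalised per plate.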 Raw values vary from plate to plate and are shown uncorrected. Unmarked entries are inactive. Reagents against one gene are numbered here. A plus sign joins genes that one reagent is predicted to hit. Reagent sequences are not shown.

Target gene | reagent no. | mitotic cells, replicate 1 | mitotic cells, replicate 2
CG31268 | 1 | 4 | –
Pus10 | 1 | 10 | –
Nhe2 | 1 | 9 | –
Nhe2 | 2 | 6 | –
AOX3 | 1 | 7 | –
CG4291 | 1 | 5 | –
CG4291 | 2 | 8 | –
CG30350 | 1 | 8 | –
LManII | 1 | 6 | –
Rab39 | 1 | 5 | –
IFT52 | 1 | 10 | –
IFT52 | 2 | 10 | –
Svip | 1 | 8 | –
Svip | 2 | 2 | –
CG16952 | 1 | 7 | –
Tlk | 1 | 9 | –
Tlk | 2 | 13 | –
Tlk | 3 | 17 | –
Tlk | 4 | 13 | –
Trp1 | 1 | 4 | –
Trp1 | 2 | 9 | –
Ahcy | 1 | 8 | –
Ahcy | 2 | 4 | –
alpha-Est4aPsi | 1 | 3 | –
CG12811 | 1 | 6 | –
CG31404 | 1 | 8 | –
CG31404 | 2 | 2 | –
oys | 1 | 13 | –
oys | 2 | 3 | –
oys | 3 | 7 | –
Vsx1 | 1 | 6 | –
Vsx1 | 2 | 7 | –
CG14246 | 1 | 4 | –
CG14246 | 2 | 10 | –
Cht10 | 1 | 10 | –
Cht10 | 2 | 7 | –
Cht10 | 3 | 5 | –
Lcp4 | 1 | 4 | –
Lcp4 | 2 | 17 | –
Imp | 1 | 6 | –
Imp | 2 | 11 | –
Lrpprc2 | 1 | 5 | –
Lrpprc2 | 2 | 10 | –
Eaat1 | 1 | 6 | –
DIP-alpha | 1 | 7 | –
DIP-alpha | 2 | 2 | –
CG42329 | 1 | 8 | –
CG42329 | 2 | 10 | –
Cpr72Eb | 1 | 5 | –
CG10702 | 1 | 4 | –
vg | 1 | 10 | –
vg | 2 | 7 | –
vg | 3 | 5 | –
bcn92 | 1 | 15 | –
bcn92 | 2 | 4 | –
CG34330 | 1 | 39 | –
CG34330 | 2 | 14 | –
Pdha | 1 | 25 | –
Pdha | 2 | 16 | –
CR13656 | 1 | 24 | –
CR13656 | 2 | 15 | –
TotB | 1 | 6 | –
Fdx2 | 1 | 6 | –
CG14933 + CG42486 | 1 | 3 | –
Scgdelta | 1 | 15 | –
CG15534 | 1 | 11 | –
CG15534 | 2 | 4 | –
CG9626 | 1 | 6 | –
CG9626 | 2 | 3 | –
hlk | 1 | 5 | –
hlk | 2 | 9 | –
hlk | 3 | 4 | –
PH4alphaSG1 | 1 | 12 | –
CG33267 | 1 | 5 | –
Ih | 1 | 10 | –
Ih | 2 | 8 | –
Cip4 | 1 | 1 | –
Cip4 | 2 | 8 | –
CG3085 | 1 | 3 | –
tRNA:Leu-CAA-2-3 | 1 | 5 | –
alpha-PheRS | 1 | 6 | –
alpha-PheRS | 2 | 5 | –

Next part; the last 8 above are carried over.
Target gene | reagent no. | mitotic cells, replicate 1 | mitotic cells, replicate 2
Ih | 1 | 10 | –
Ih | 2 | 8 | –
Cip4 | 1 | 1 | –
Cip4 | 2 | 8 | –
CG3085 | 1 | 3 | –
tRNA:Leu-CAA-2-3 | 1 | 5 | –
alpha-PheRS | 1 | 6 | –
alpha-PheRS | 2 | 5 | –
dpr17 | 1 | 12 | –
dpr17 | 2 | 7 | –
agt | 1 | 2 | –
crq | 1 | 6 | –
lft | 1 | 4 | –
RabGGTa | 1 | 4 | –
Bap111 | 1 | 4 | 16
Bap111 | 2 | 14 | –
Prp39 | 1 | 6 | –
Prp39 | 2 | 3 | –
CG1896 | 1 | 9 | –
ac | 1 | 7 | –
ac | 2 | 5 | –
CG32388 | 1 | 3 | –
Karybeta3 | 1 | 2 | –
CG9581 | 1 | 10 | –
CG9581 | 2 | 2 | –
CG4896 | 1 | 1 | –
CG4896 | 2 | 4 | –
Chc | 1 | 10 | –
Uba1 | 1 | 11 | –
Uba1 | 2 | 16 | –
Nthl1 | 1 | 7 | –
CG43066 | 1 | 7 | 13
CG43066 | 2 | 2 | –
Bem46 | 1 | 3 | –
X11L | 1 | 9 | –
X11L | 2 | 11 | –
X11L | 3 | 6 | –
Nurf-38 | 1 | 9 | –
Nurf-38 | 2 | 4 | –
CG3701 (retired record) | 1 | 9 | –
CG3701 (retired record) | 2 | 6 | –
klar | 1 | 4 | –
klar | 2 | 7 | –
eIF5B | 1 | 7 | –
eIF5B | 2 | 3 | –
eIF5B | 3 | 5 | –
Np | 1 | 5 | –
Np | 2 | 4 | –
CG1750 | 1 | 7 | –
LSm1 | 1 | 9 | –
CG32638 | 1 | 5 | –
CG14459 | 1 | 12 | –
CG30259 | 1 | 6 | –
CG30259 | 2 | 4 | –
ATPsynO | 1 | 8 | –
ATPsynO | 2 | 3 | –
muskelin | 1 | 1 | –
htt | 1 | 7 | –
Prp16 | 1 | 4 | –
Prp16 | 2 | 7 | –
Sln | 1 | 3 | –
Sln | 2 | 7 | –
CG4074 | 1 | 2 | –
CG4074 | 2 | 4 | –
CG3568 | 1 | 9 | –
CG3568 | 2 | 3 | –
